Reference: the supplement of paper PMC8728848
This is one part of the list.

Tests used:
Assay in all cases: glycan array binding signal (z-score within array); higher = stronger binding
Details in all cases: glycan notation: IUPAC condensed, linker removed
[1] = molecular target: Gal(b1-4)GalNAc(a1-3)[Fuc(a1-2)]Gal(b1-4)GlcNAc
How it was run: (§1)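 The binding signal is a Z-score computed within each array. Data were drawn from 3228 arrays in the Consortium for Functional Glycomics database, restricted to those with a known protein sequence. Scores were averaged over arrays of the same protein sequence at different concentrations or buffers, and over linkers, and negative values can be taken as non-binding.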

[2] = molecular target: Gal(b1-4)GalNAc(b1-3)[Fuc(a1-2)]Gal(b1-4)GlcNAc
How it was run: as §1

[3] = molecular target: Gal(b1-4)Glc
How it was run: as §1

[4] = molecular target: Gal(b1-4)Glc6S
How it was run: as §1

[5] = molecular target: Gal(b1-4)GlcNAc
How it was run: as §1

[6] = molecular target: Gal(b1-4)GlcNAc(a1-6)Gal(b1-4)GlcNAc
How it was run: as §1

[7] = molecular target: Gal(b1-4)GlcNAc(b1-2)Man
How it was run: as §1

[8] = molecular target: Gal(b1-4)GlcNAc(b1-2)Man(a1-3)Man(b1-4)GlcNAc(b1-4)GlcNAc
How it was run: as §1

[9] = molecular target: Gal(b1-4)GlcNAc(b1-2)Man(a1-3)[Gal(b1-4)GlcNAc(b1-2)Man(a1-6)]Man(b1-4)GlcNAc(b1-4)GlcNAc
How it was run: as §1

[10] = molecular target: Gal(b1-4)GlcNAc(b1-2)Man(a1-3)[Gal(b1-4)GlcNAc(b1-2)Man(a1-6)]Man(b1-4)GlcNAc(b1-4)[Fuc(a1-6)]GlcNAc
How it was run: as §1

[11] = molecular target: Gal(b1-4)GlcNAc(b1-2)Man(a1-3)[Gal(b1-4)GlcNAc(b1-2)][GlcNAc(b1-4)]Man(b1-4)GlcNAc(b1-4)GlcNAc
How it was run: as §1

[12] = molecular target: Gal(b1-4)GlcNAc(b1-2)Man(a1-3)[GlcNAc(b1-2)Man(a1-6)]Man(b1-4)GlcNAc(b1-4)GlcNAc
How it was run: as §1

[13] = molecular target: Gal(b1-4)GlcNAc(b1-2)Man(a1-3)[Man(a1-6)]Man(b1-4)GlcNAc(b1-4)GlcNAc
How it was run: as §1

[14] = molecular target: Gal(b1-4)GlcNAc(b1-2)Man(a1-6)Man(b1-4)GlcNAc(b1-4)GlcNAc
How it was run: as §1

[15] = molecular target: Gal(b1-4)GlcNAc(b1-2)Man(a1-6)[GlcNAc(b1-2)Man(a1-3)]Man(b1-4)GlcNAc(b1-4)GlcNAc
How it was run: as §1

[16] = molecular target: Gal(b1-4)GlcNAc(b1-2)Man(a1-6)[Man(a1-3)]Man(b1-4)GlcNAc(b1-4)GlcNAc
How it was run: as §1

[17] = molecular target: Gal(b1-4)GlcNAc(b1-2)[Gal(b1-4)GlcNAc(b1-4)]Man(a1-3)[Gal(b1-4)GlcNAc(b1-2)Man(a1-6)]Man(b1-4)GlcNAc(b1-4)GlcNAc
How it was run: as §1

[18] = molecular target: Gal(b1-4)GlcNAc(b1-2)[Gal(b1-4)GlcNAc(b1-4)]Man(a1-3)[Gal(b1-4)GlcNAc(b1-2)[Gal(b1-4)GlcNAc(b1-6)]Man(a1-6)]Man(b1-4)GlcNAc(b1-4)GlcNAc
How it was run: as §1

[19] = molecular target: Gal(b1-4)GlcNAc(b1-2)[Gal(b1-4)GlcNAc(b1-4)]Man(a1-3)[GlcNAc(b1-4)][Gal(b1-4)GlcNAc(b1-2)Man(a1-6)]Man(b1-4)GlcNAc(b1-4)GlcNAc
How it was run: as §1

[20] = molecular target: Gal(b1-4)GlcNAc(b1-2)[Gal(b1-4)GlcNAc(b1-4)]Man(a1-3)[GlcNAc(b1-4)][Gal(b1-4)GlcNAc(b1-2)[Gal(b1-4)GlcNAc(b1-6)]Man(a1-6)]Man(b1-4)GlcNAc(b1-4)GlcNAc
How it was run: as §1

[21] = molecular target: Gal(b1-4)GlcNAc(b1-2)[Gal(b1-4)GlcNAc(b1-6)]Man(a1-6)[Gal(b1-4)GlcNAc(b1-2)Man(a1-3)]Man(b1-4)GlcNAc(b1-4)GlcNAc
How it was run: as §1

[22] = molecular target: Gal(b1-4)GlcNAc(b1-2)[Gal(b1-4)GlcNAc(b1-6)]Man(a1-6)[GlcNAc(b1-4)][Gal(b1-4)GlcNAc(b1-2)Man(a1-3)]Man(b1-4)GlcNAc(b1-4)GlcNAc
How it was run: as §1

[23] = molecular target: Gal(b1-4)GlcNAc(b1-3)Gal(b1-3)GlcNAc
How it was run: as §1

[24] = molecular target: Gal(b1-4)GlcNAc(b1-3)Gal(b1-4)Glc
How it was run: as §1

[25] = molecular target: Gal(b1-4)GlcNAc(b1-3)Gal(b1-4)GlcNAc
How it was run: as §1

[26] = molecular target: Gal(b1-4)GlcNAc(b1-3)Gal(b1-4)GlcNAc(b1-3)Gal(b1-4)GlcNAc
How it was run: as §1

[27] = molecular target: Gal(b1-4)GlcNAc(b1-3)Gal(b1-4)[Fuc(a1-3)GlcNAc(b1-6)]Gal(b1-4)Glc
How it was run: as §1

[28] = molecular target: Gal(b1-4)GlcNAc(b1-3)Gal(b1-4)[Fuc(a1-3)]GlcNAc(b1-3)Gal(b1-4)[Fuc(a1-3)]GlcNAc
How it was run: as §1

[29] = molecular target: Gal(b1-4)GlcNAc(b1-3)GalNAc
How it was run: as §1

[30] = molecular target: Gal(b1-4)GlcNAc(b1-3)[Gal(b1-4)GlcNAc(b1-6)]Gal(b1-4)GlcNAc
How it was run: as §1

[31] = molecular target: Gal(b1-4)GlcNAc(b1-3)[Gal(b1-4)GlcNAc(b1-6)]GalNAc
How it was run: as §1

[32] = molecular target: Gal(b1-4)GlcNAc(b1-3)[GlcNAc(b1-6)]Gal(b1-4)GlcNAc
How it was run: as §1

[33] = molecular target: Gal(b1-4)GlcNAc(b1-6)Gal(b1-4)GlcNAc
How it was run: as §1

[34] = molecular target: Gal(b1-4)GlcNAc(b1-6)GalNAc
How it was run: as §1

[35] = molecular target: Gal(b1-4)GlcNAc(b1-6)[Gal(b1-3)]GalNAc
How it was run: as §1

[36] = molecular target: Gal(b1-6)Gal
How it was run: as §1

[37] = molecular target: Gal3S(b1-3)GalNAc
How it was run: as §1

[38] = molecular target: Gal3S(b1-3)GlcNAc
How it was run: as §1

B1: Intelectin 1 (Homo sapiens), Q8WWA0 (protein)
chain: MNQLSFLLFLIATTRGWSTDEANTYFKEWTCSSSPSLPRSCKEIKDECPSAFDGLYFLRTENGVIYQTFCDMTSGGGGWTLVASVHENDMRGKCTVGDRWSSQQGSKAVYPEGDGNWANYNTFGSAEAATSDDYKNPGYYDIQAKDLGIWHVPNKSPMQHWRNSSLLRYRTDTGFLQTLGHNLFGIYQKYPVKYGEGKCWTDNGPVIPVVYDFGDAQKTASYYSPYGQREFTAGFVQFRVFNNERAANALCAGMRVTGCNTEHHCIGGGGYFPEASPQQCGDFSGFDWSGYGTHVGYSSSREITEAAVLLFYR
[1]
  glycan array binding signal (z-score): 0.068
[2]
  glycan array binding signal (z-score): -0.176
[3]
  glycan array binding signal (z-score): -0.284
[4]
  glycan array binding signal (z-score): -0.101
[5]
  glycan array binding signal (z-score): 0.029
[6]
  glycan array binding signal (z-score): 0.254
[7]
  glycan array binding signal (z-score): 0.889
[8]
  glycan array binding signal (z-score): 1.08
[9]
  glycan array binding signal (z-score): -0.296
[10]
  glycan array binding signal (z-score): 0.931
[11]
  glycan array binding signal (z-score): 0.605
[12]
  glycan array binding signal (z-score): 0.616
[13]
  glycan array binding signal (z-score): -0.062
[14]
  glycan array binding signal (z-score): 0.389
[15]
  glycan array binding signal (z-score): -0.009
[16]
  glycan array binding signal (z-score): -0.442
[17]
  glycan array binding signal (z-score): -0.421
[18]
  glycan array binding signal (z-score): 0.453
[19]
  glycan array binding signal (z-score): 0.186
[20]
  glycan array binding signal (z-score): 0.411
[21]
  glycan array binding signal (z-score): -0.084
[22]
  glycan array binding signal (z-score): -0.523
[23]
  glycan array binding signal (z-score): 0.961
[24]
  glycan array binding signal (z-score): 0.614
[25]
  glycan array binding signal (z-score): -0.221
[26]
  glycan array binding signal (z-score): 0.544
[27]
  glycan array binding signal (z-score): 0.487
[28]
  glycan array binding signal (z-score): 0.206
[29]
  glycan array binding signal (z-score): -0.371
[30]
  glycan array binding signal (z-score): -0.483
[31]
  glycan array binding signal (z-score): 0.005
[32]
  glycan array binding signal (z-score): 0.288
[33]
  glycan array binding signal (z-score): 0.484
[34]
  glycan array binding signal (z-score): -0.433
[35]
  glycan array binding signal (z-score): -0.064
[36]
  glycan array binding signal (z-score): -0.348
[37]
  glycan array binding signal (z-score): -0.197
[38]
  glycan array binding signal (z-score): -0.481
